Measurements reported in paper PMC12758326.
No constants are given. Whether binding was seen depends on the method and setting. In cells and extracts the contact can be indirect. Some binding calls cover weakened binding; strength is not graded here.

Target: T1, PPARGC1A/PGC-1α (human (endogenous in HK2)) (UniProt Q9UBK2)
T1 sequence: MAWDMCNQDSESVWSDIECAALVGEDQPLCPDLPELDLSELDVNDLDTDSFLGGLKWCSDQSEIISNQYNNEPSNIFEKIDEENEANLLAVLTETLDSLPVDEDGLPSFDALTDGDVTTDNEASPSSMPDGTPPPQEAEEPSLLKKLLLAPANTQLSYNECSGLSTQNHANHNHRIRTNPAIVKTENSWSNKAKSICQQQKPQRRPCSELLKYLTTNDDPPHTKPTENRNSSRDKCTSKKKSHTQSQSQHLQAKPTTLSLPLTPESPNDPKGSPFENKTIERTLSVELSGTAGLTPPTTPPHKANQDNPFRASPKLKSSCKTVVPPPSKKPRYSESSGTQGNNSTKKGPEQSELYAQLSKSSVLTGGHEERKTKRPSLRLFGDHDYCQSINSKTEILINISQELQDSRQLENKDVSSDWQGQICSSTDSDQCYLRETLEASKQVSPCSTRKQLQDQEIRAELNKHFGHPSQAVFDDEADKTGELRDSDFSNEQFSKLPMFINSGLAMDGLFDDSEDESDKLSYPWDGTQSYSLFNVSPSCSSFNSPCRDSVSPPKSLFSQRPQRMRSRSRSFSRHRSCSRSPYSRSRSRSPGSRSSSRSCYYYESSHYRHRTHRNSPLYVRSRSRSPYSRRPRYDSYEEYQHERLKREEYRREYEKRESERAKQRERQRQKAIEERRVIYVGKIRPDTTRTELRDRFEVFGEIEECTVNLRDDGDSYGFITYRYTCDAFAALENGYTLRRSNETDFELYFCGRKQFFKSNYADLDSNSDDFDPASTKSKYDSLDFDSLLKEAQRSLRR
Assay: co-IP; proteins extracted from HK2 cells incubated with anti-PGC-1α at 4°C overnight, protein A/G beads 2 h, western blot; cells with circAASS knockdown, or H/R-treated with overexpression of circAASS or of its linearised variants (LcircAASS-JS, RLcircAASS, LcircAASS-JS mut, LcircAASS-JS 518-776)

B1: RNF34 (protein, UniProt Q969K3 1-372)
chain: MKAGATSMWASCCGLLNEVMGTGAVRGQQSAFAGATGPFRFTPNPEFSTYPPAATEGPNIVCKACGLSFSVFRKKHVCCDCKKDFCSVCSVLQENLRRCSTCHLLQETAFQRPQLMRLKVKDLRQYLILRNIPIDTCREKEDLVDLVLCHHGLGSEDDMDTSSLNSSRSQTSSFFTRSFFSNYTAPSATMSSFQGELMDGDQTSRSGVPAQVQSEITSANTEDDDDDDDEDDDDEEENAEDRNPGLSKERVRASLSDLSSLDDVEGMSVRQLKEILARNFVNYSGCCEKWELVEKVNRLYKENEENQKSYGERLQLQDEEDDSLCRICMDAVIDCVLLECGHMVTCTKCGKRMSECPICRQYVVRAVHVFKS
B1 was tested, and the binding was “binds”.
